# Primary screen of a compound library

Chains of the proteins cited; added tags and fusions are not shown.
UniProt E9BF75, entry or part of it: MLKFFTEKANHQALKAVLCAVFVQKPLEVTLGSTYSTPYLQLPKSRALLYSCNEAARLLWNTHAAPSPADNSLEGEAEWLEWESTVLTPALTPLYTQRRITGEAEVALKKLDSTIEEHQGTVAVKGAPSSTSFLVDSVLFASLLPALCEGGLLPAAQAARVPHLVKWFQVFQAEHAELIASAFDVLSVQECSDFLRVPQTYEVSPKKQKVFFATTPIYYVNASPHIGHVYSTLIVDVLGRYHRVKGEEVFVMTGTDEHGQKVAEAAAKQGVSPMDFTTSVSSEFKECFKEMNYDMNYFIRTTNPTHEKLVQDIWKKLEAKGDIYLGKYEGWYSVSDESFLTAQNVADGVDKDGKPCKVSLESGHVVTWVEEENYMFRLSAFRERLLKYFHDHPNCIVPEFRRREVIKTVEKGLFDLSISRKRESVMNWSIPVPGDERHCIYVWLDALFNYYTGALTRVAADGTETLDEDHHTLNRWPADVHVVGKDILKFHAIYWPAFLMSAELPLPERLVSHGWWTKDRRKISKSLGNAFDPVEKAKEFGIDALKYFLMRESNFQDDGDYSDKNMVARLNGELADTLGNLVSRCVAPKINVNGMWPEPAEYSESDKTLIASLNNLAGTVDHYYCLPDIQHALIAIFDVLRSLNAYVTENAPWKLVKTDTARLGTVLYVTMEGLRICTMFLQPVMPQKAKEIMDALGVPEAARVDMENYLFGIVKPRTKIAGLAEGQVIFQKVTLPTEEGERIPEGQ

Results are percentages, as filed.
The controls that fix the scale are not given in the record; negative values are as filed.
The compounds are a random part of those screened.

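Methionyl-tRNA synthetase (putative), Leishmania donovani (UniProt E9BF75). Primary screen of methionyl-tRNA synthetase; the read-out is not stated. The test concentration is not given. Values are per cent inhibition. About 68,000 compounds were tested under these conditions; 0.035% (about 24) showed 50% or more at least once.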

{"structure": "O=C(CC1CCCCC1)NC1CCCc2nc(N3CCOCC3)ncc21", "stereo": "stereo not shown", "Inhibition": 12.5}
{"structure": "Cc1nnc2ccc(N3CCC4(CCOC4)C3)nn12", "stereo": "stereo not shown", "Inhibition": 13.09}
{"structure": "N#Cc1cccc(C(=O)Nc2ccc([C@@H](O)[C@H]3COCC(=O)N3)cc2)c1", "Inhibition": 8.271}
{"structure": "Cc1nc(C)n(C2CCCN(C(=O)CCc3cn(C)nc3C)C2)n1", "stereo": "stereo not shown", "Inhibition": 10.63}
{"structure": "O=C(CCc1ccco1)N1CCc2[nH]nc(COc3ccccc3)c2C1", "Inhibition": 5.105}
{"structure": "CCC(C(=O)NCc1ccncc1)N(c1ccccc1)S(C)(=O)=O", "stereo": "stereo not shown", "Inhibition": 11.73}
{"structure": "Cc1ccccc1C(=O)N1CCCn2cnc(CN3CCCC3=O)c2C1", "Inhibition": 11.17}
{"structure": "O=C(Cc1ccccc1Cl)NCCN1CCC(c2cccs2)CC1", "Inhibition": 11.83}
{"structure": "O=C(NCc1ccco1)[C@@]12CCO[C@@H]1CCN(Cc1nccs1)C2", "Inhibition": 12.59}
{"structure": "CCc1nc(CC(=O)N2CCn3c(nnc3C(C)C)C2)cs1", "Inhibition": 6.122}
{"structure": "CNC(=O)CN1CCO[C@H]2CN(CC3CC3)C[C@H]21", "Inhibition": -9.774}
{"structure": "CCN(Cc1cnn(C)c1)C[C@H]1CC[C@@H](Cc2ccc(CO)cc2)O1", "Inhibition": 1.292}
{"structure": "COc1ccc(OC)c(CNc2nnc(C(C)(C)C)o2)c1", "Inhibition": 13.44}
{"structure": "O=C(c1ccncc1)N1CC[C@@H]2CN(C3CCOCC3)CCO[C@@H]2C1", "Inhibition": 9.384}
{"structure": "CC(C)C(C)(C#N)NC(=O)Cn1cc(C(N)=O)c(-c2ccccc2)n1", "stereo": "stereo not shown", "Inhibition": 6.72}
{"structure": "CNC(=O)C1CCN(C(=O)c2coc(COc3ccc(OC)cc3)n2)C1", "stereo": "stereo not shown", "Inhibition": 10.03}
{"structure": "COc1ccnc(N2C[C@@H](NS(=O)(=O)N(C)C)[C@H](C(C)C)C2)n1", "Inhibition": 11.64}
{"structure": "CC(C)n1cnnc1CN(C)Cc1cnc(-c2ccco2)nc1", "Inhibition": -2.41}
{"structure": "COc1cc(C)nc(N2CCN(C(=O)CCc3ccncc3)CC2)n1", "Inhibition": 6.355}
{"structure": "CC(C)(C)NC(=O)CNc1ccc(Br)cn1", "Inhibition": 17.65}
{"structure": "Cc1cc(=O)n2nc(Oc3cccc(I)c3)sc2n1", "Inhibition": 16.1}
{"structure": "N#Cc1cccc(S(=O)(=O)NC(=O)COCC(F)(F)F)c1", "Inhibition": 12.78}
{"structure": "CN(C)C[C@H]1OC[C@@H]2CN(C(=O)NCc3cccc(F)c3)CC[C@@H]21", "Inhibition": 14.79}
{"structure": "CCSCC(C)NCc1cn2ccccc2n1", "stereo": "stereo not shown", "Inhibition": 17.18}
{"structure": "CCn1nc2c(cc1=O)CN(CC(=O)Nc1nccs1)CC2", "Inhibition": 13.77}
{"structure": "CC(C)c1cc(NC2CCN(C(=O)N3CCCC3)CC2)ncn1", "Inhibition": 7.436}
{"structure": "O=C(CCc1ccsc1)N1CCC(Nc2cccnn2)CC1", "Inhibition": 15.36}
{"structure": "Cc1ccc(F)c(OC2(C(=O)O)CCN(C(=O)C3CCCC3)CC2)c1", "Inhibition": 3.546}
{"structure": "O=C(NCCc1cc(=O)[nH]cn1)c1[nH]nc2c1CCCC2", "Inhibition": 12.5}
{"structure": "Cc1ccc(CNCc2nnc3n2CCCC3C(F)(F)F)o1", "stereo": "stereo not shown", "Inhibition": 7.805}
{"structure": "COc1ccccc1N1CCN(C(=O)CCCS(N)(=O)=O)C(C)C1", "stereo": "stereo not shown", "Inhibition": 14.07}
{"structure": "CCCSc1ncccc1C(=O)NCc1ccc(S(N)(=O)=O)cc1", "Inhibition": 4.722}
{"structure": "CC(=O)N(Cc1ncc(C)o1)C1CCN(Cc2ccccc2F)C1", "stereo": "stereo not shown", "Inhibition": 19.34}
{"structure": "CS(=O)(=O)N[C@H]1CCO[C@]2(CCN(C(=O)c3ccccn3)C2)C1", "Inhibition": 10.95}

Some entries from above, unchanged:

- CN(C)C[C@H]1OC[C@@H]2CN(C(=O)NCc3cccc(F)c3)CC[C@@H]21 : 14.79%
- CC(C)C(C)(C#N)NC(=O)Cn1cc(C(N)=O)c(-c2ccccc2)n1 (stereo not shown) : 6.72%
- Cc1nnc2ccc(N3CCC4(CCOC4)C3)nn12 (stereo not shown) : 13.09%
- CCN(Cc1cnn(C)c1)C[C@H]1CC[C@@H](Cc2ccc(CO)cc2)O1 : 1.292%

Measurements from “University of Dundee, Small-Polar-MMV Screening Library” (2021), ChEMBL document CHEMBL3988442.